Laboratory results: paper PMC6530213, “Monitoring flux in signalling pathways through measurements of 4EBP1-mediated eIF4F complex assembly” (BMC Biology, 2019)

Columns and labels:
Assay type in all cases: cell-based
[1] = system: eIF4E:eIF4G^604–646 complex; test: NanoBit eIF4E:eIF4G^604–646 protein complementation assay in HEK293 cells; settings: for IC50: HEK293, 4 h treatment, read-out: IC50, NanoBit eIF4E:eIF4G^604–646 signal
Description: Opaque 96-well plates were seeded with 20,000 HEK293 cells per well in DMEM and 10% FCS. Transfections in 96-well plate format were performed using FUGENE6 (Roche) with 100 ng of the indicated plasmid vectors per well as outlined in the manufacturer’s instructions (Fig. 1). Twenty-four hours after transfection, the medium was replaced with 100 μl of Opti-MEM I cell media containing 0% FCS with no added red phenol (Thermo Fisher Scientific) and luminescence activity assayed (as outlined in “NanoBit and cell viability experiments” section). Transfections utilising 4EBP1 constructs were performed with either 50 ng of the indicated construct or empty vector.
(§1) Twenty-four hours prior to transfection, cells (HEK293, PANC-1 or PC-3) were seeded at a cell density of 800,000 cells per well of a six-well plate (Thermo Fisher Scientific). Transfections in six-well plates were performed using Lipofectamine 3000 (Thermo Fisher Scientific) with 3 μg of the indicated plasmid vectors per well according to the manufacturer’s instructions. For knockdown experiment, siRNA Ctrl or 4EBP1 at a final concentration of 100 nM were included in the transfection mixture. Transfections utilising GFP and GFP-MYC contained 1 μg of each vector or empty vector, respectively. In the case of transfections utilising any of the 4EBP1 constructs described, only 0.5 μg of each vector or empty vector was used, respectively. After a 24- or 48-h (as indicated in the figure legends) incubation period, the medium was removed and cells were washed with PBS saline. […]
(§2) Either HEK293, PC-3 or PANC-1 cells were spun down at 1000 rpm for 5 min at room temperature. […] The plates were then shaken for 1 min at 22 °C and luminescence assessed after additional 50 min using an Envision Multi-Plate reader (Perkin-Elmer). Plates were then multiplexed with CellTiter-GLO 2.0 reagent (PROMEGA) and cellular viability determined according to the manufacturer’s instruction. […]

[2] = system: eIF4E:eIF4G^604–646 complex; test: NanoBit eIF4E:eIF4G^604–646 protein complementation assay in PANC-1 cells; settings: for IC50: PANC cells, 4E-BP1 protein levels low, read-out: NanoBit eIF4E:4G (IC50)
Description: Twenty-four hours prior to transfection, cells (HEK293, PANC-1 or PC-3) were seeded at a cell density of 800,000 cells per well of a six-well plate (Thermo Fisher Scientific). Transfections in six-well plates were performed using Lipofectamine 3000 (Thermo Fisher Scientific) with 3 μg of the indicated plasmid vectors per well according to the manufacturer’s instructions. For knockdown experiment, siRNA Ctrl or 4EBP1 at a final concentration of 100 nM were included in the transfection mixture. Transfections utilising GFP and GFP-MYC contained 1 μg of each vector or empty vector, respectively. In the case of transfections utilising any of the 4EBP1 constructs described, only 0.5 μg of each vector or empty vector was used, respectively. After a 24- or 48-h (as indicated in the figure legends) incubation period, the medium was removed and cells were washed with PBS saline. Cells were then either lysed directly for immunoprecipitation experiments or were trypsinised and re-suspended in Opti-MEM media with 0% FCS to perform NanoBit and cell viability experiments in a 96-well format.
Either HEK293, PC-3 or PANC-1 cells were spun down at 1000 rpm for 5 min at room temperature. Supernatant was then discarded, and cells re-suspended to a density of to 220,000 cells per millilitre in Opti-MEM I cell media containing 0% FBS with no added red phenol. Then 90 μl of the cell re-suspension was added to the wells of a white opaque 96-well plate. Compounds were then titrated onto the 96-well plate using a suitable twofold dilution series from a 10× stock solution containing 10% v/v DMSO. Control wells were also treated with a 10% DMSO only stock solution to yield a final residual DMSO concentration of 1% v/v. The 96-well plates were then incubated for 4 h at 37 °C, with 5% CO2. […] The plates were then shaken for 1 min at 22 °C and luminescence assessed after additional 50 min using an Envision Multi-Plate reader (Perkin-Elmer). Plates were then multiplexed with CellTiter-GLO 2.0 reagent (PROMEGA) and cellular viability determined according to the manufacturer’s instruction. […]

[3] = system: eIF4E:eIF4G^604–646 complex; test: NanoBit eIF4E:eIF4G^604–646 protein complementation assay in PC-3 cells; settings: PC3 cells, 4E-BP1 protein levels high; read-out: NanoBit eIF4E:4G (IC50)
Description: as §1, §2

[4] = system: eIF4E S209 phosphorylation; test: AlphaScreen Surefire eIF4E S209 phosphorylation assay in PANC-1 cells; settings: 4E-BP1 protein levels low, normalised to GAPDH
Description: (§3) Ninety-six-well plates were seeded at 30,000 cells per well with non-transfected PC-3, PANC-1 or HKEK293 cells in DMEM with 10% FCS and incubated overnight. Cells were then washed with PBS and the media replaced with OPTI-MEM containing no serum. Cells were then treated with the indicated compounds. Controls were performed with DMSO vehicle treatments. Four hours post treatments, cells were lysed with 50 μl of passive lysis buffer (PerkinElmer) for 15 min and 10 μl of lysate from each well was transferred into a white bottom 384-well plate. GAPDH and pS209 eIF4E levels were assessed according to the manufacturer’s instructions (PerkinElmer) for each sample. Luminescence was measured using an Envision Multiplate reader (PerkinElmer).

[5] = system: eIF4E S209 phosphorylation; test: AlphaScreen Surefire eIF4E S209 phosphorylation assay in PC-3 cells; settings: PC3 cells, 4E-BP1 protein levels high, normalised to GAPDH; read-out: pEIF4E SureFire (IC50)
Description: as §3

Structure (SMILES): CC(C)n1nc(-c2cc3cc(O)ccc3[nH]2)c2c(N)ncnc21 [PP242]
- IC50 ([1]; listed as PP2442): 9180 ± 4250 nM
- IC50 [1]: 720 ± 40 nM
- Attenuation of potency by siRNA-mediated knockdown of 4EBP1 ([1]; HEK293, si4EBP1 versus siCtrl): fivefold
- Activity in PANC cells transfected with 4EBP1^WT vector ([2]; PANC cells expressing 4EBP1^WT): restored
- IC50 ([2]; listed as PP2442): 70 ± 40 nM
- IC50 [2]: 9180 ± 4250 nM
- IC50 [3]: 110 ± 20 nM
- pEIF4E SureFire (IC50, μM) [4]: No Inhibition
- IC50 [5]: 800 ± 400 nM
